Earlier results as cited in patent US20200323843A1 (IRR, Inc., priority 2010, published 2020).

Details: in vivo; cited from earlier work

O=C(O)COCCN1CCN([C@H](c2ccccc2)c2ccc(Cl)cc2)CC1 [Levocetirizine, levocetirizine]
time to peak plasma level: 0.9 h
